1 substance from US9809640B2 (priority 2010, dated 2017) can be followed below.

Strings that start with PEPTIDE1 are HELM notation: dots part the residues, brackets hold end groups and non-standard residues.

The nature of the data set: peptide synthesis. As to conditions: conjugation step, HPLC.

For “PEPTIDE1{[ac].R.Q.I.K.I.W.F.Q.N.R.R.M.K.W.K.K.C.L.R.V.R.L.A.S.H.L.R.K.L.R.K.R.L.L.[am]}|PEPTIDE2{[ac].R.Q.I.K.I.W.F.Q.N.R.R.M.K.W.K.K.C.L.R.V.R.L.A.S.H.L.R.K.L.R.K.R.L.L.[am]}|CHEM1{[BMOE]}$PEPTIDE1,CHEM1,18:R3-1:R1|PEPTIDE2,CHEM1,18:R3-1:R2$$$V2.0”, the “final purity (method not given)” value is 98%.
